What all share (assay): tandem affinity chromatography + SEC; subunits co-overexpressed in budding yeast; complexes purified from interphase cell extracts by the His12 tag on Brn1 and the triple StrepII tag on Smc4, followed by a gel filtration step
One assay has as its target T1, Brn1 (S. cerevisiae) (UniProt P38170).
T1 sequence: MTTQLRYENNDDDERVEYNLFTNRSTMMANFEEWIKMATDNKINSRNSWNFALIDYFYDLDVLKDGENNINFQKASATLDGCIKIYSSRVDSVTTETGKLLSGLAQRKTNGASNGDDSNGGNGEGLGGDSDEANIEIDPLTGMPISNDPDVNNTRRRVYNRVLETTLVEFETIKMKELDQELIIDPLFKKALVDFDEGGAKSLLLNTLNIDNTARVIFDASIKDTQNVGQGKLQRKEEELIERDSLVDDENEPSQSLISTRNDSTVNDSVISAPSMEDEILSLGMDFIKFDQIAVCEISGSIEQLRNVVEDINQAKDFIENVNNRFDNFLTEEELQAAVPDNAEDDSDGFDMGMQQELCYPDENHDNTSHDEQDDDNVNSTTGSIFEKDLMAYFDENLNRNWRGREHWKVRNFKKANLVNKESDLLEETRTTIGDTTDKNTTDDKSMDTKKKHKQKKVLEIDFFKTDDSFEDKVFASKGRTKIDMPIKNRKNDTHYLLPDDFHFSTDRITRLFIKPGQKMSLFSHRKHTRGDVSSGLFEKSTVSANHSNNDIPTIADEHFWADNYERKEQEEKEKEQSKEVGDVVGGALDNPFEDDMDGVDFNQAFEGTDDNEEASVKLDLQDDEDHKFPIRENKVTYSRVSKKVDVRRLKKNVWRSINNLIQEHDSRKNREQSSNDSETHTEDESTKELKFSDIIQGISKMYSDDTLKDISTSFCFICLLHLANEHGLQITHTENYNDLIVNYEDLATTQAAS

The target of assay [1] is T2, Smc4 Q302L (S. cerevisiae) (UniProt Q12267).
T2 sequence: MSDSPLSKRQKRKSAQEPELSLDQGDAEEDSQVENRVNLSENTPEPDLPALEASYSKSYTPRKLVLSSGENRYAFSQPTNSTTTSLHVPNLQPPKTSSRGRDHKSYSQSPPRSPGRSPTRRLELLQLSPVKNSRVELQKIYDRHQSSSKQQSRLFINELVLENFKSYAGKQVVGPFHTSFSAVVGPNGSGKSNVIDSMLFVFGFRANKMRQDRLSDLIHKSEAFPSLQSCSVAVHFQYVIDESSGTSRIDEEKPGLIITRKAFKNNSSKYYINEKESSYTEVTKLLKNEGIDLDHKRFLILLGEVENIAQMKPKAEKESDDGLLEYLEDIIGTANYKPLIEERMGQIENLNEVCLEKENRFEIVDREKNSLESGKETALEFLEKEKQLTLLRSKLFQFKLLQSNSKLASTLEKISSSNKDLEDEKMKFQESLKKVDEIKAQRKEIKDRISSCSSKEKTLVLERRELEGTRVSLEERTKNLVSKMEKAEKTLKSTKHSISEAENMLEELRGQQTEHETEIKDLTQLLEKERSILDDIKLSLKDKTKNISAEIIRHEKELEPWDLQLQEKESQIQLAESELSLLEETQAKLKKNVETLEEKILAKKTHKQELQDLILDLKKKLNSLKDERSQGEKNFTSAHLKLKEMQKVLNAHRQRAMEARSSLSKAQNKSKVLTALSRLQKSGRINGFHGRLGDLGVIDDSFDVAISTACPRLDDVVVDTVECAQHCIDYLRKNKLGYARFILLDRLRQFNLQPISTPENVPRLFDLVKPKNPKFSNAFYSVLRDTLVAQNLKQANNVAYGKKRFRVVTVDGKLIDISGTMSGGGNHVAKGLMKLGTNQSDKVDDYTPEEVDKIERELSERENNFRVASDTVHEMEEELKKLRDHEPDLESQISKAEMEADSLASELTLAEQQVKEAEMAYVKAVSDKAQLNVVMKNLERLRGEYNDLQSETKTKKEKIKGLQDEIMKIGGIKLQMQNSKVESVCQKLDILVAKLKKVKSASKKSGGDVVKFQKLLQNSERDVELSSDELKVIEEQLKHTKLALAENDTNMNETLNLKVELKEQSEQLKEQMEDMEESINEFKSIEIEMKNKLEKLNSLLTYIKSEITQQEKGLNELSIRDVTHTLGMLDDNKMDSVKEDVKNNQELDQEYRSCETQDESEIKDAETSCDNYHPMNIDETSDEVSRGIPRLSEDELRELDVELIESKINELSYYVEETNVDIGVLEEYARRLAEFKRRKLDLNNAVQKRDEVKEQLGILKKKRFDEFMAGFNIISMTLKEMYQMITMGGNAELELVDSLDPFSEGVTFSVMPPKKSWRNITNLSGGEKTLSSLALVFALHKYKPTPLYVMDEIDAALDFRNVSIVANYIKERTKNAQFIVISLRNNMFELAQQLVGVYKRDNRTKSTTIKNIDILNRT

In assay [2] the target is T3, Brn1 K409D, R411D, K414D, K451D, K452D, K456D, K457D (S. cerevisiae) (UniProt P38170).
T3 sequence: T1 sequence with K409D, R411D, K414D, K451D, K452D, K456D, K457D

Numbering of substitutions follows the chain as printed. Names may count otherwise. These are yes or no findings as the source states them, for the method shown. Some results given as binding are weak or reduced against the parent protein; the word gives no strength.

In paper PMC5709735, “Real‐time detection of condensin‐driven DNA compaction reveals a multistep binding mechanism” (The EMBO Journal, 2017) one finds binding data, which are given here for two molecules.

B1: Ycg1 (protein, UniProt Q06680 1-1035)
chain: MQDPDGIDINTKIFNSVAEVFQKAQGSYAGHRKHIAVLKKIQSKAVEQGYEDAFNFWFDKLVTKILPLKKNEIIGDRIVKLVAAFIASLERELILAKKQNYKLTNDEEGIFSRFVDQFIRHVLRGVESPDKNVRFRVLQLLAVIMDNIGEIDESLFNLLILSLNKRIYDREPTVRIQAVFCLTKFQDEEQTEHLTELSDNEENFEATRTLVASIQNDPSAEVRRAAMLNLINDNNTRPYILERARDVNIVNRRLVYSRILKSMGRKCFDDIEPHIFDQLIEWGLEDRELSVRNACKRLIAHDWLNALDGDLIELLEKLDVSRSSVCVKAIEALFQSRPDILSKIKFPESIWKDFTVEIAFLFRAIYLYCLDNNITEMLEENFPEASKLSEHLNHYILLRYHHNDISNDSQSHFDYNTLEFIIEQLSIAAERYDYSDEVGRRSMLTVVRNMLALTTLSEPLIKIGIRVMKSLSINEKDFVTMAIEIINDIRDDDIEKQEQEEKIKSKKINRRNETSVDEEDENGTHNDEVNEDEEDDNISSFHSAVENLVQGNGNVSESDIINNLPPEKEASSATIVLCLTRSSYMLELVNTPLTENILIASLMDTLITPAVRNTAPNIRELGVKNLGLCCLLDVKLAIDNMYILGMCVSKGNASLKYIALQVIVDIFSVHGNTVVDGEGKVDSISLHKIFYKVLKNNGLPECQVIAAEGLCKLFLADVFTDDDLFETLVLSYFSPINSSNEALVQAFAFCIPVYCFSHPAHQQRMSRTAADILLRLCVLWDDLQSSVIPEVDREAMLKPNIIFQQLLFWTDPRNLVNQTGSTKKDTVQLTFLIDVLKIYAQIEKKEIKKMIITNINAIFLSSEQDYSTLKELLEYSDDIAENDNLDNVSKNALDKLRNNLNSLIEEINERSETQTKDENNTANDQYSSILGNSFNKSSNDTIEHAADITDGNNTELTKTTVNISAVDNTTEQSNSRKRTRSEAEQIDTSKNLENMSIQDTSTVAKNVSFVLPDEKSDAMSIDEEDKDSESFSEVC
For B1, the binding result (in the assay with Brn1 (S. cerevisiae); in assay [1]; in assay [2]) was “binds” each time.

B2: Smc2 Q147L (protein, UniProt P38989 1-1170)
chain: MKVEELIIDGFKSYATRTVITDWDPQFNAITGLNGSGKSNILDAICFVLGIASMSTVRASSLQDLIYKRGQAGVTKASVTIVFDNTDKSNSPIGFTNSPQISVTRQVVLGGTSKYLINGHRAPQQSVLQLFQSVQLNINNPNFLIMLGKITKVLNMKPSEILSLIEEAAGTKMFEDRREKAERTMSKKETKLQENRTLLTEEIEPKLEKLRNEKRMFLEFQSTQTDLEKTERIVVSYEYYNIKHKHTSIRETLENGETRMKMLNEFVKKTSEEIDSLNEDVEEIKLQKEKELHKEGTISKLENKENGLLNEISRLKTSLSIKVENLNDTTEKSKALESEIASSSAKLIEKKSAYANTEKDYKMVQEQLSKQRDLYKRKEELVSTLTTGISSTGAADGGYNAQLAKAKTELNEVSLAIKKSSMKMELLKKELLTIEPKLKEATKDNELNVKHVKQCQETCDKLRARLVEYGFDPSRIKDLKQREDKLKSHYYQTCKNSEYLKRRVTNLEFNYTKPYPNFEASFVHGVVGQLFQIDNDNIRYATALQTCAGGRLFNVVVQDSQTATQLLERGRLRKRVTIIPLDKIYTRPISSQVLDLAKKIAPGKVELAINLIRFDESITKAMEFIFGNSLICEDPETAKKITFHPKIRARSITLQGDVYDPEGTLSGGSRNTSESLLVDIQKYNQIQKQIETIQADLNHVTEELQTQYATSQKTKTIQSDLNLSLHKLDLAKRNLDANPSSQIIARNEEILRDIGECENEIKTKQMSLKKCQEEVSTIEKDMKEYDSDKGSKLNELKKELKLLAKELEEQESESERKYDLFQNLELETEQLSSELDSNKTLLHNHLKSIESLKLENSDLEGKIRGVEDDLVTVQTELNEEKKRLMDIDDELNELETLIKKKQDEKKSSELELQKLVHDLNKYKSNTNNMEKIIEDLRQKHEFLEDFDLVRNIVKQNEGIDLDTYRERSKQLNEKFQELRKKVNPNIMNMIENVEKKEAALKTMIKTIEKDKMKIQETISKLNEYKRETLVKTWEKVTLDFGNIFADLLPNSFAKLVPCEGKDVTQGLEVKVKLGNIWKESLIELSGGQRSLIALSLIMALLQFRPAPMYILDEVDAALDLSHTQNIGHLIKTRFKGSQFIVVSLKEGMFANANRVFRTRFQDGTSVVSIM
In the case of B2, the binding result (with Brn1 (S. cerevisiae); in assay [1]) was “binds” each time.
